# Reference: publication PMC5996148
# Values joined by “and” are separate entries in the source; they are usually repeats but may differ in a detail not shown here. Equal values may be shown once. This is one part of the list.
# Legend:
# Assay in all cases: protein microarray (ProtoArray v5.0), streptavidin-Alexa Fluor 647
# Details in all cases: 3'-biotin; 20 mM Tris (pH 7.5), 5 mM MgCl2, 100 mM KCl, 0.1% Tween-20, A/T-rich and random oligonucleotide blockers; temperature not stated; high values mean tight binding
# [1] = system: Uncharacterized protein C2orf62 (human)
# [2] = system: Uncharacterized protein C3orf62 (human)
# [3] = system: Uncharacterized protein C4orf32 (human)
# [4] = system: Uncharacterized protein C6orf142 homolog (human)
# [5] = system: Uncharacterized protein C8orf41 (human)
# [6] = system: Uncharacterized protein CXorf38 (human)
# [7] = system: Uncharacterized protein KIAA1109 (human)
# [8] = system: Uncharacterized serine/threonine-protein kinase SgK494 (human)
# [9] = system: Uridine-cytidine kinase 2 (human)
# [10] = system: Urocortin-2 (human)
# [11] = system: Uromodulin (human)
# [12] = system: V-type proton ATPase 16 kDa proteolipid subunit (human)
# [13] = system: V-type proton ATPase subunit F (human)
# [14] = system: V-type proton ATPase subunit e 1 (human)
# [15] = system: VAC14 (human)
# [16] = system: VAMP1 (human)
# [17] = system: VAMP2 (human)
# [18] = system: VAMP3 (human)
# [19] = system: VAMP4 (human)
# [20] = system: VAMP5 (human)
sequence,measurement,setting,value
GGGAGGCTGAGGCAGG [G4-1 biotinylated (PQS2)],binding signal,[1],-0.354 z-score
same,binding signal,[2],-0.296 z-score
same,binding signal,[3],-0.325 z-score
same,binding signal,[4],-0.283 z-score
same,binding signal,[5],-0.34 z-score
same,binding signal,[6],-0.34 z-score
same,binding signal,[7],-0.275 z-score
same,binding signal,[8],-0.282 z-score
same,binding signal,[9],-0.342 z-score
same,binding signal,[10],-0.283 z-score
same,binding signal,[11],-0.331 z-score
same,binding signal,[12],-0.343 z-score
same,binding signal,[13],-0.361 z-score
same,binding signal,[14],-0.348 z-score
same,binding signal,[15],-0.349 z-score
same,binding signal,[16],-0.275 z-score and -0.321 z-score
same,binding signal,[17],-0.321 z-score
same,binding signal,[18],-0.327 z-score and -0.238 z-score
same,binding signal,[19],-0.291 z-score and -0.279 z-score
same,binding signal,[20],-0.34 z-score

# Retrieved one by one from above:
sequence,measurement,setting,value
GGGAGGCTGAGGCAGG [G4-1 biotinylated (PQS2)],binding signal,[5],-0.34 z-score
same,binding signal,[2],-0.296 z-score
